Earlier results on 1 compound are cited in patent US8178579B2, “Dioxanes and uses thereof” (President and Fellows of Harvard College, priority 2001, dated 2012).

Structures are written as SMILES.

The data set concerns α-tubulin deacetylation. The conditions noted are these: cited from earlier work.

On to `O=C(CCCCCCC(=O)Nc1ccccc1)NO` [suberoylanilide hydroxamic acid], for which the “inhibition of HDAC6, from Koeller et al.” value was “also inhibit HDAC6”.
